Experimental data from publication PMC10564737, “Structure-based design of a phosphotyrosine-masked covalent ligand targeting the E3 ligase SOCS2” (Nature Communications, 2023).
Several values for one entry are separate records, joined by “and”; a condition that tells them apart may be missing. Identical values can stand only once. This continues a long series; more values of the same kind are listed elsewhere.

Sequences of proteins named here, by UniProt entry; tags and fusion partners are left off. Residues count along the entry.
UniProt O14508, 32-198: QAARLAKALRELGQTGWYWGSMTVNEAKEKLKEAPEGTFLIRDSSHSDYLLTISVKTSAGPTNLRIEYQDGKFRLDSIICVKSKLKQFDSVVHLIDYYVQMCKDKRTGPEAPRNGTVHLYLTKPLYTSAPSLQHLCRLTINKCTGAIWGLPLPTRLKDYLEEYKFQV

Molecular target: T1, SBC2 (Homo sapiens, UniProt O14508)
T1 construct: SOCS2 (amino acids 32–198); His6 (N, cleaved yes); made in house; host or cells: E. coli BL21(DE3)
Test: Covalent fluorescence polarization (FP) probe displacement assay
Type: binding
Description: With the specific covalent modification of Cys111 established, we decided to fully characterize MN551 as a covalent SOCS2 inhibitor. […] (Fig. 2g, h, Supplementary Fig. 9). Due to the covalent nature of the competing inhibitor, a time-dependent reduction in the fraction of protein-bound probe is observed. […] This value illustrates reasonable specificity for a covalent inhibitor, with nonetheless scope for future optimization. In addition to characterizing the kinetic covalency parameters, we have also assessed the stability of the MN551 by monitoring its reactivity (half-life >70 min) with reduced glutathione (GSH) (Supplementary Fig. 10)[35].
To monitor the SBC2-ligand binding kinetics we designed a fluorescein-labeled small-molecule probe - compound 26. The fluorescence polarization (anisotropy) of a threefold serial dilution of 50 µM SBC2 in 10 nM of the probe in 100 mM HEPES pH 7.5, 50 mM NaCl, 0.5 mM TCEP, 2% DMSO was measured to determine the KL (Supplementary Fig. 9A) (BMG Labtech PHERAstar – firmware v1.33). Protein titration and the curves were fitted using GraphPad Prism 9, using one-site fitting models to determine the probe binding constant, KL. Samples were run in triplicate in 384 well plates, using a total volume per well of 16 μL. The bound fraction of the probe is measure using the equation:1 Fb=Af−A/Af−Ab Where,
A time-dependent reduction in probe anisotropy were measured for a 2-fold serial dilution of […] compound MN551 in 10 nM probe +300 μM SBC2. To determine the initial reversible binding affinity, the initial bound fraction of the probe at time = 0, Fbo (the y-intercept in Fb v/s Time plot, Supplementary Fig. 9B) was plotted against MN551 concentration, and the obtained IC50 is then converted to Ki (Supplementary Fig. 9C)[17]. The slope from Fb versus time graph when divided by Fbo gives rate of covalency, kobs. A plot of kobs v/s MN551 concentration using Michaelis–Menten model of GraphPad Prism 9, provides the parameters kinact (maximum potential rate of inactivation) and KI (concentration of MN551 at which kobs = kinact/2) (Supplementary Fig. 9D, E).
The observed first-order rate constant, kobs is related to KI and kinact by the equation:2 kobs=kinactI/KI+I
At [I]«[KI] the above equation is converted to3 […]
The slope from the plot of kobs against concentration of MN551 gives us the covalent efficiency parameter kinact/KI (Supp Fig. 9F)[30],[33].

[1] = MN551 260.308 nM; Cycle 16 (75 min); n=1
[2] = MN551 364.432 nM, Cycle 8 (35 min)
[3] = MN551 364.432 nM, Cycle 9 (40 min)
[4] = MN551 364.432 nM, Cycle 10 (45 min)
[5] = MN551 364.432 nM, Cycle 11 (50 min)
[6] = MN551 364.432 nM, Cycle 16 (75 min), n=1
[7] = MN551 364.432 nM, Cycle 17 (80 min), n=1
[8] = MN551 364.432 nM, Cycle 18 (85 min), n=1
[9] = MN551 364.432 nM; Cycle 7 (30 min)
[10] = MN551 364.432 nM; Cycle 8 (35 min)
[11] = MN551 364.432 nM; Cycle 9 (40 min)
[12] = MN551 364.432 nM; Cycle 10 (45 min)
[13] = MN551 364.432 nM; Cycle 11 (50 min)
[14] = MN551 364.432 nM; Cycle 12 (55 min); n=1
[15] = MN551 364.432 nM; Cycle 13 (60 min); n=1
[16] = MN551 364.432 nM; Cycle 14 (65 min); n=1
[17] = MN551 364.432 nM; Cycle 15 (70 min); n=1
[18] = MN551 364.432 nM; Cycle 16 (75 min); n=1
[19] = MN551 390.625 nM, Cycle 8 (35 min)
[20] = MN551 390.625 nM, Cycle 9 (40 min)
[21] = MN551 390.625 nM, Cycle 10 (45 min)
[22] = MN551 390.625 nM; Cycle 6 (25 min)
[23] = MN551 390.625 nM; Cycle 7 (30 min)
[24] = MN551 390.625 nM; Cycle 8 (35 min)
[25] = MN551 390.625 nM; Cycle 9 (40 min)

O=C(CCl)Nc1cccc(CNC(=O)[C@H](Cc2ccc(OP(=O)(O)O)cc2)NC(=O)Cc2ccc(F)cc2)c1 [MN551]
Anisotropy [1]: 263.7 and 246.3 and 246.4
Anisotropy based on Raw Data (485) [1]: 259 and 258.7 and 254.8
Anisotropy data 485,520,520 (MN551 260.308 nM; Cycle 20 (95 min); n=1): 254 and 251.2 and 250.6
Fb (MN551 364.432 nM, Cycle 7 (30 min)): 0.8196 and 0.745 and 0.7734
Anisotropy based on Raw Data (485) [2]: 263.9 and 262.1 and 262.5
Fb [2]: 0.7783 and 0.7279 and 0.7451
Anisotropy based on Raw Data (485) [3]: 261.8 and 260.7
Fb [3]: 0.7904 and 0.7381 and 0.7122
Anisotropy based on Raw Data (485) [4]: 260.2 and 258.5 and 259.8
Fb [4]: 0.7966 and 0.7395 and 0.7573
Anisotropy based on Raw Data (485) [5]: 259.3 and 257.9 and 257.7
Fb [5]: 0.7917 and 0.733 and 0.7348
Anisotropy (MN551 364.432 nM, Cycle 13 (60 min), n=1): 257.7 and 255.4 and 251.9
Anisotropy (MN551 364.432 nM, Cycle 14 (65 min), n=1): 254.8 and 253.5 and 249.2
Anisotropy (MN551 364.432 nM, Cycle 15 (70 min), n=1): 253.3 and 253.8 and 250.7
Anisotropy [6]: 253.2 and 253.4 and 248.5
Normalised anisotropy (0 nM MN551 = 1, free probe = 0) [6]: 0.7894 and 0.8114 and 0.761
Anisotropy [7]: 252.9 and 247.9 and 248.8
Anisotropy based on Raw Data (485) [7]: 254.5 and 251.7 and 253.6
Normalised anisotropy (0 nM MN551 = 1, free probe = 0) [7]: 0.8087 and 0.7507 and 0.7881
Anisotropy [8]: 250.5 and 248.8 and 248.1
Normalised anisotropy (0 nM MN551 = 1, free probe = 0) [8]: 0.7948 and 0.7759 and 0.805
Fb, fraction bound (MN551 364.432 nM; Cycle 4 (15 min)): 0.8802 and 0.8605 and 0.8798
Fb, fraction bound (MN551 364.432 nM; Cycle 5 (20 min)): 0.8514 and 0.8585 and 0.8503
Fb, fraction bound (MN551 364.432 nM; Cycle 6 (25 min)): 0.8581 and 0.8628 and 0.8397
Anisotropy data 485,520,520 [9]: 263.4 and 251 and 253.3
Fb [9]: 0.8829 and 0.862 and 0.9413
Fb, fraction bound [9]: 0.8346 and 0.839 and 0.8486
Anisotropy [10]: 262.8 and 262.5 and 259.2
Anisotropy data 485,520,520 [10]: 259.5 and 248.8 and 251.3
Fb [10]: 0.8565 and 0.8782 and 0.9536 and 0.8667 and 0.8418 and 0.8403
Anisotropy [11]: 261 and 261.7 and 259.8
Anisotropy data 485,520,520 [11]: 260.7 and 248.6 and 247.4
Fb [11]: 0.8462 and 0.8806 and 0.93 and 0.8566 and 0.8291 and 0.8422
Anisotropy [12]: 261.6 and 259.6 and 255.7
Anisotropy data 485,520,520 [12]: 258.2 and 246.6 and 249.6
Fb [12]: 0.8555 and 0.8547 and 0.9469 and 0.8594 and 0.823 and 0.8081
Anisotropy [13]: 258.9 and 259.3 and 254.3
Anisotropy data 485,520,520 [13]: 257.4 and 247.5 and 246.7
Fb [13]: 0.8406 and 0.8336 and 0.8133
Fb (MN551 364.432 nM; Cycle 11 (50 min); column head blank in this cycle): 0.8416 and 0.8648 and 0.908
Anisotropy [14]: 255.9 and 243.7 and 246.3
Anisotropy based on Raw Data (485) [14]: 259.7 and 256.8
Anisotropy [15]: 253.9 and 241.9 and 243.7
Anisotropy based on Raw Data (485) [15]: 259 and 253.7 and 255.5
Anisotropy [16]: 256.9 and 241.2 and 244
Anisotropy based on Raw Data (485) [16]: 254.6 and 255 and 254.2
Anisotropy [17]: 254 and 241.3 and 242.7
Anisotropy based on Raw Data (485) [17]: 256 and 253.4 and 256.6
Anisotropy [18]: 252.5 and 240.2 and 242
Anisotropy based on Raw Data (485) [18]: 255.9 and 251.1 and 251.4
Anisotropy data 485,520,520 (MN551 364.432 nM; Cycle 20 (95 min); n=1): 247.9 and 247 and 245.6
Fb (MN551 390.625 nM, Cycle 7 (30 min)): 0.781 and 0.8732 and 0.8527
Anisotropy based on Raw Data (485) [19]: 271.5 and 272 and 265.7
Fb [19]: 0.7988 and 0.8933 and 0.8448
Anisotropy based on Raw Data (485) [20]: 266.2 and 269.5 and 265.7
Fb [20]: 0.7492 and 0.887 and 0.8552
Anisotropy based on Raw Data (485) [21]: 264.9 and 267.4 and 264.5
Fb [21]: 0.7389 and 0.8588 and 0.8631
Anisotropy (MN551 390.625 nM, Cycle 13 (60 min), n=1): 266.6 and 265.1 and 265.6
Anisotropy (MN551 390.625 nM, Cycle 14 (65 min), n=1): 267.7 and 262.3 and 262.8
Anisotropy (MN551 390.625 nM, Cycle 15 (70 min), n=1): 266.7 and 262 and 260.6
Anisotropy (MN551 390.625 nM, Cycle 16 (75 min), n=1): 263.9 and 260.3 and 259.4
Anisotropy (MN551 390.625 nM, Cycle 17 (80 min), n=1): 264.7 and 260.5 and 260.6
Anisotropy (MN551 390.625 nM, Cycle 18 (85 min), n=1): 261.3 and 257.1 and 256.1
Fb, fraction bound (MN551 390.625 nM; Cycle 4 (15 min)): 0.9724 and 0.9343 and 0.9269
Fb, fraction bound (MN551 390.625 nM; Cycle 5 (20 min)): 0.9453 and 0.958 and 0.944
Anisotropy data 485,520,520 [22]: 270.2 and 269.8 and 273.3
Fb [22]: 0.9071 and 0.8852 and 0.9154
Fb, fraction bound [22]: 0.9555 and 0.9553 and 0.9105
Anisotropy data 485,520,520 [23]: 268.8 and 270.1 and 270.7
Fb [23]: 0.9366 (2×) and 0.91
Fb, fraction bound [23]: 0.9485 and 0.9289 and 0.9249
Anisotropy [24]: 275.3 and 272.2 and 270.7
Anisotropy data 485,520,520 [24]: 268.6 and 269.4 and 269.6
Fb [24]: 0.9174 and 0.8949 and 0.9198 and 0.9596 and 0.9219 and 0.9164
Anisotropy [25]: 270.8 and 271.6 and 268.5
Anisotropy data 485,520,520 [25]: 265.9 and 265.5 and 267.9
Fb [25]: 0.9133 and 0.8723 and 0.9099 and 0.9047 and 0.931 and 0.907
Anisotropy (MN551 390.625 nM; Cycle 10 (45 min)): 272.7 and 270.9 and 268.2
